Source: the supplement of paper PMC8728848
This is one part of the list.

Legend:
Test in all cases: glycan array binding signal (z-score within array); higher = stronger binding
Details in all cases: glycan notation: IUPAC condensed, linker removed
[1] = molecular target: Gal(b1-4)GlcNAc(b1-2)Man(a1-6)[Man(a1-3)]Man(b1-4)GlcNAc(b1-4)GlcNAc
In short: (§1)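 The binding signal is a Z-score computed within each array and averaged over linkers. Arrays of the same protein sequence at different concentrations or buffers were also averaged together. Data originate from 3228 arrays in the Consortium for Functional Glycomics database, kept only where the protein sequence was available.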

[2] = molecular target: Gal(b1-4)GlcNAc(b1-2)[Gal(b1-4)GlcNAc(b1-4)]Man(a1-3)[Gal(b1-4)GlcNAc(b1-2)Man(a1-6)]Man(b1-4)GlcNAc(b1-4)GlcNAc
In short: as §1

[3] = molecular target: Gal(b1-4)GlcNAc(b1-2)[Gal(b1-4)GlcNAc(b1-4)]Man(a1-3)[Gal(b1-4)GlcNAc(b1-2)[Gal(b1-4)GlcNAc(b1-6)]Man(a1-6)]Man(b1-4)GlcNAc(b1-4)GlcNAc
In short: as §1

[4] = molecular target: Gal(b1-4)GlcNAc(b1-2)[Gal(b1-4)GlcNAc(b1-4)]Man(a1-3)[GlcNAc(b1-4)][Gal(b1-4)GlcNAc(b1-2)Man(a1-6)]Man(b1-4)GlcNAc(b1-4)GlcNAc
In short: as §1

[5] = molecular target: Gal(b1-4)GlcNAc(b1-2)[Gal(b1-4)GlcNAc(b1-4)]Man(a1-3)[GlcNAc(b1-4)][Gal(b1-4)GlcNAc(b1-2)[Gal(b1-4)GlcNAc(b1-6)]Man(a1-6)]Man(b1-4)GlcNAc(b1-4)GlcNAc
In short: as §1

[6] = molecular target: Gal(b1-4)GlcNAc(b1-2)[Gal(b1-4)GlcNAc(b1-6)]Man(a1-6)[Gal(b1-4)GlcNAc(b1-2)Man(a1-3)]Man(b1-4)GlcNAc(b1-4)GlcNAc
In short: as §1

[7] = molecular target: Gal(b1-4)GlcNAc(b1-2)[Gal(b1-4)GlcNAc(b1-6)]Man(a1-6)[Gal(b1-4)GlcNAc(b1-2)Man(a1-3)]Man(b1-4)GlcNAc(b1-4)[Fuc(a1-6)]GlcNAc
In short: as §1

[8] = molecular target: Gal(b1-4)GlcNAc(b1-2)[Gal(b1-4)GlcNAc(b1-6)]Man(a1-6)[GlcNAc(b1-4)][Gal(b1-4)GlcNAc(b1-2)Man(a1-3)]Man(b1-4)GlcNAc(b1-4)GlcNAc
In short: as §1

[9] = molecular target: Gal(b1-4)GlcNAc(b1-2)[Gal(b1-4)GlcNAc(b1-6)]Man(a1-6)[GlcNAc(b1-4)][Gal(b1-4)GlcNAc(b1-2)[Gal(b1-4)GlcNAc(b1-4)]Man(a1-3)]Man(b1-4)GlcNAc(b1-4)[Fuc(a1-6)]GlcNAc
In short: as §1

[10] = molecular target: Gal(b1-4)GlcNAc(b1-3)Gal(b1-3)GalNAc
In short: as §1

[11] = molecular target: Gal(b1-4)GlcNAc(b1-3)Gal(b1-3)GlcNAc
In short: as §1

[12] = molecular target: Gal(b1-4)GlcNAc(b1-3)Gal(b1-4)Glc
In short: as §1

[13] = molecular target: Gal(b1-4)GlcNAc(b1-3)Gal(b1-4)GlcNAc
In short: as §1

[14] = molecular target: Gal(b1-4)GlcNAc(b1-3)Gal(b1-4)GlcNAc(b1-2)Man(a1-3)[Gal(b1-4)GlcNAc(b1-3)Gal(b1-4)GlcNAc(b1-2)Man(a1-6)]Man(b1-4)GlcNAc(b1-4)GlcNAc
In short: as §1

[15] = molecular target: Gal(b1-4)GlcNAc(b1-3)Gal(b1-4)GlcNAc(b1-2)Man(a1-3)[Gal(b1-4)GlcNAc(b1-3)Gal(b1-4)GlcNAc(b1-2)Man(a1-6)]Man(b1-4)GlcNAc(b1-4)[Fuc(a1-6)]GlcNAc
In short: as §1

[16] = molecular target: Gal(b1-4)GlcNAc(b1-3)Gal(b1-4)GlcNAc(b1-2)[Gal(b1-4)GlcNAc(b1-3)Gal(b1-4)GlcNAc(b1-6)]Man(a1-6)[Gal(b1-4)GlcNAc(b1-3)Gal(b1-4)GlcNAc(b1-2)Man(a1-3)]Man(b1-4)GlcNAc(b1-4)GlcNAc
In short: as §1

[17] = molecular target: Gal(b1-4)GlcNAc(b1-3)Gal(b1-4)GlcNAc(b1-2)[Gal(b1-4)GlcNAc(b1-3)Gal(b1-4)GlcNAc(b1-6)]Man(a1-6)[Gal(b1-4)GlcNAc(b1-3)Gal(b1-4)GlcNAc(b1-2)Man(a1-3)]Man(b1-4)GlcNAc(b1-4)[Fuc(a1-6)]GlcNAc
In short: as §1

[18] = molecular target: Gal(b1-4)GlcNAc(b1-3)Gal(b1-4)GlcNAc(b1-3)Gal(b1-4)GlcNAc
In short: as §1

[19] = molecular target: Gal(b1-4)GlcNAc(b1-3)Gal(b1-4)GlcNAc(b1-3)Gal(b1-4)GlcNAc(b1-2)Man(a1-3)[Gal(b1-4)GlcNAc(b1-3)Gal(b1-4)GlcNAc(b1-3)Gal(b1-4)GlcNAc(b1-2)Man(a1-6)]Man(b1-4)GlcNAc(b1-4)GlcNAc
In short: as §1

[20] = molecular target: Gal(b1-4)GlcNAc(b1-3)Gal(b1-4)GlcNAc(b1-3)Gal(b1-4)GlcNAc(b1-2)Man(a1-3)[Gal(b1-4)GlcNAc(b1-3)Gal(b1-4)GlcNAc(b1-3)Gal(b1-4)GlcNAc(b1-2)Man(a1-6)]Man(b1-4)GlcNAc(b1-4)[Fuc(a1-6)]GlcNAc
In short: as §1

[21] = molecular target: Gal(b1-4)GlcNAc(b1-3)Gal(b1-4)GlcNAc(b1-3)Gal(b1-4)GlcNAc(b1-2)[Gal(b1-4)GlcNAc(b1-3)Gal(b1-4)GlcNAc(b1-3)Gal(b1-4)GlcNAc(b1-6)]Man(a1-6)[Gal(b1-4)GlcNAc(b1-3)Gal(b1-4)GlcNAc(b1-3)Gal(b1-4)GlcNAc(b1-2)Man(a1-3)]Man(b1-4)GlcNAc(b1-4)[Fuc(a1-6)]GlcNAc
In short: as §1

[22] = molecular target: Gal(b1-4)GlcNAc(b1-3)Gal(b1-4)GlcNAc(b1-3)Gal(b1-4)GlcNAc(b1-3)Gal(b1-4)GlcNAc(b1-2)Man(a1-3)[Gal(b1-4)GlcNAc(b1-3)Gal(b1-4)GlcNAc(b1-3)Gal(b1-4)GlcNAc(b1-3)Gal(b1-4)GlcNAc(b1-2)Man(a1-6)]Man(b1-4)GlcNAc(b1-4)GlcNAc
In short: as §1

B1: Pwp7 (Candida glabrata) (protein)
chain: MGSSHHHHHHSSGLVPRGSHMASKNPVDFPNLCQYPNLDGAVAGFDTEIYNADPSILINFSLWPILQFPKEWHKTIGRAITTQTNFKLPASDTTLFGVSIPTQNILIEFRGYFIPPKSGTYTFALYLTDDGSAMFLGNDAAFPCGNITSWSNPTNDQVSVSDYDPKKKTLTVYMVAGVAYPLRIAYYNREKGGSLTASFVDPDGLTHSDWNGYIWTLPSCDNCKYS
**Q.** For B1, which “glycan array binding signal (z-score)” value [1] is on record?
**A.** Its value is 1.63.

**Q.** And the “glycan array binding signal (z-score)” value [2]?
**A.** Its value is -0.614.

**Q.** What about the “glycan array binding signal (z-score)” value [3] of the same binder?
**A.** Its value is -0.379.

**Q.** What about the “glycan array binding signal (z-score)” value [4] of the same binder?
**A.** Its value is -0.274.

**Q.** What about the “glycan array binding signal (z-score)” value [5] of the same binder?
**A.** The value was -0.128.

**Q.** And the “glycan array binding signal (z-score)” value [6]?
**A.** The value was 0.103.

**Q.** What about the “glycan array binding signal (z-score)” value [7] of the same binder?
**A.** The value was 0.305.

**Q.** What about the “glycan array binding signal (z-score)” value [8] of the same binder?
**A.** Its value is 0.527.

**Q.** And the “glycan array binding signal (z-score)” value [9]?
**A.** The value was -0.254.

**Q.** What about the “glycan array binding signal (z-score)” value [10] of the same binder?
**A.** The value was 0.1.

**Q.** And the “glycan array binding signal (z-score)” value [11]?
**A.** Its value is 0.314.

**Q.** What about the “glycan array binding signal (z-score)” value [12] of the same binder?
**A.** The value was 0.203.

**Q.** What about the “glycan array binding signal (z-score)” value [13] of the same binder?
**A.** The value was 0.476.

**Q.** What about the “glycan array binding signal (z-score)” value [14] of the same binder?
**A.** The value was 2.11.

**Q.** What about the “glycan array binding signal (z-score)” value [15] of the same binder?
**A.** Its value is 1.17.

**Q.** And the “glycan array binding signal (z-score)” value [16]?
**A.** The value was 4.75.

**Q.** And the “glycan array binding signal (z-score)” value [17]?
**A.** The value was 0.752.

**Q.** What about the “glycan array binding signal (z-score)” value [18] of the same binder?
**A.** Its value is -0.205.

**Q.** And the “glycan array binding signal (z-score)” value [19]?
**A.** Its value is 0.929.

**Q.** And the “glycan array binding signal (z-score)” value [20]?
**A.** Its value is 0.805.

**Q.** And the “glycan array binding signal (z-score)” value [21]?
**A.** Its value is 0.468.

**Q.** What about the “glycan array binding signal (z-score)” value [22] of the same binder?
**A.** The value was 1.16.
